In US20180284132A1, “KITS FOR STRATIFYING SCOLIOTIC SUBJECTS” (CHU SAINTE-JUSTINE, priority 2013, published 2018):
Some results were stated once for a whole list of compounds, not compound by compound.

System: Gi1, Gi2, Gi3 and Gs mRNA
Test: Gene knockdown by siRNA in osteoblasts, qPCR
Assay type: cell-based, human
Conditions: osteoblasts from control and the three AIS groups, 48 h after transfection

| Substance | reduction of expression of the corresponding mRNA |
| --- | --- |
| Gi2 siRNA: siRNA from Ambion, GAGGACCUGAAUAAGCGCAAAGACA (SEQ ID NO: 98) | 75-85% |
| Gs siRNA: siRNA from Ambion, ACAACAUGGUCAUCCGGGAGGACAA (SEQ ID NO: 100) | 75-85% |
